Laboratory results published in paper PMC13089345.
No constants are given. Whether binding was seen depends on the method and setting. Some entries that bind do so weakly or less than the wild type.

Target: bovine nonmuscle myosin regulatory light chain (RLC, myosin light chain 9, MYL9) (bovine) (UniProt Q5E9E2)
Assay: cryo-EM structure; dephosphorylated shutdown (10S) NM2A; 140 mM KCl, 10 mM Mops pH 7.2, 0.1 mM EGTA, 2 mM MgCl2, 1 mM ATP; cross-linked with 1 mM BS3 for 30 min at 25°C; head region 3.0 Å, whole molecule 6.3 Å; both purified

- binding: binds
B1: bovine nonmuscle myosin regulatory light chain (RLC, myosin light chain 9, MYL9) (protein, UniProt Q5E9E2 1-172)
chain: MSSKRAKTKTTKKRPQRATSNVFAMFDQSQIQEFKEAFNMIDQNRDGFIDKEDLHDMLASLGKNPTDEYLDAMMNEAPGPINFTMFLTMFGEKLNGTDPEDVIRNAFACFDEEATGTIQEDYLRELLTTMGDRFTDEEVDELYREAPIDKKGNFNYIEFTRILKHGAKDKDD
